Measured values from publication PMC8895442.
No constants are given. Whether binding was seen depends on the method and setting. Binding seen in cells or lysates may run through a third protein. Some entries that bind do so weakly or less than the wild type.

By UniProt entry, the sequences of proteins in these tests, tags left out.
UniProt Q8IWZ3: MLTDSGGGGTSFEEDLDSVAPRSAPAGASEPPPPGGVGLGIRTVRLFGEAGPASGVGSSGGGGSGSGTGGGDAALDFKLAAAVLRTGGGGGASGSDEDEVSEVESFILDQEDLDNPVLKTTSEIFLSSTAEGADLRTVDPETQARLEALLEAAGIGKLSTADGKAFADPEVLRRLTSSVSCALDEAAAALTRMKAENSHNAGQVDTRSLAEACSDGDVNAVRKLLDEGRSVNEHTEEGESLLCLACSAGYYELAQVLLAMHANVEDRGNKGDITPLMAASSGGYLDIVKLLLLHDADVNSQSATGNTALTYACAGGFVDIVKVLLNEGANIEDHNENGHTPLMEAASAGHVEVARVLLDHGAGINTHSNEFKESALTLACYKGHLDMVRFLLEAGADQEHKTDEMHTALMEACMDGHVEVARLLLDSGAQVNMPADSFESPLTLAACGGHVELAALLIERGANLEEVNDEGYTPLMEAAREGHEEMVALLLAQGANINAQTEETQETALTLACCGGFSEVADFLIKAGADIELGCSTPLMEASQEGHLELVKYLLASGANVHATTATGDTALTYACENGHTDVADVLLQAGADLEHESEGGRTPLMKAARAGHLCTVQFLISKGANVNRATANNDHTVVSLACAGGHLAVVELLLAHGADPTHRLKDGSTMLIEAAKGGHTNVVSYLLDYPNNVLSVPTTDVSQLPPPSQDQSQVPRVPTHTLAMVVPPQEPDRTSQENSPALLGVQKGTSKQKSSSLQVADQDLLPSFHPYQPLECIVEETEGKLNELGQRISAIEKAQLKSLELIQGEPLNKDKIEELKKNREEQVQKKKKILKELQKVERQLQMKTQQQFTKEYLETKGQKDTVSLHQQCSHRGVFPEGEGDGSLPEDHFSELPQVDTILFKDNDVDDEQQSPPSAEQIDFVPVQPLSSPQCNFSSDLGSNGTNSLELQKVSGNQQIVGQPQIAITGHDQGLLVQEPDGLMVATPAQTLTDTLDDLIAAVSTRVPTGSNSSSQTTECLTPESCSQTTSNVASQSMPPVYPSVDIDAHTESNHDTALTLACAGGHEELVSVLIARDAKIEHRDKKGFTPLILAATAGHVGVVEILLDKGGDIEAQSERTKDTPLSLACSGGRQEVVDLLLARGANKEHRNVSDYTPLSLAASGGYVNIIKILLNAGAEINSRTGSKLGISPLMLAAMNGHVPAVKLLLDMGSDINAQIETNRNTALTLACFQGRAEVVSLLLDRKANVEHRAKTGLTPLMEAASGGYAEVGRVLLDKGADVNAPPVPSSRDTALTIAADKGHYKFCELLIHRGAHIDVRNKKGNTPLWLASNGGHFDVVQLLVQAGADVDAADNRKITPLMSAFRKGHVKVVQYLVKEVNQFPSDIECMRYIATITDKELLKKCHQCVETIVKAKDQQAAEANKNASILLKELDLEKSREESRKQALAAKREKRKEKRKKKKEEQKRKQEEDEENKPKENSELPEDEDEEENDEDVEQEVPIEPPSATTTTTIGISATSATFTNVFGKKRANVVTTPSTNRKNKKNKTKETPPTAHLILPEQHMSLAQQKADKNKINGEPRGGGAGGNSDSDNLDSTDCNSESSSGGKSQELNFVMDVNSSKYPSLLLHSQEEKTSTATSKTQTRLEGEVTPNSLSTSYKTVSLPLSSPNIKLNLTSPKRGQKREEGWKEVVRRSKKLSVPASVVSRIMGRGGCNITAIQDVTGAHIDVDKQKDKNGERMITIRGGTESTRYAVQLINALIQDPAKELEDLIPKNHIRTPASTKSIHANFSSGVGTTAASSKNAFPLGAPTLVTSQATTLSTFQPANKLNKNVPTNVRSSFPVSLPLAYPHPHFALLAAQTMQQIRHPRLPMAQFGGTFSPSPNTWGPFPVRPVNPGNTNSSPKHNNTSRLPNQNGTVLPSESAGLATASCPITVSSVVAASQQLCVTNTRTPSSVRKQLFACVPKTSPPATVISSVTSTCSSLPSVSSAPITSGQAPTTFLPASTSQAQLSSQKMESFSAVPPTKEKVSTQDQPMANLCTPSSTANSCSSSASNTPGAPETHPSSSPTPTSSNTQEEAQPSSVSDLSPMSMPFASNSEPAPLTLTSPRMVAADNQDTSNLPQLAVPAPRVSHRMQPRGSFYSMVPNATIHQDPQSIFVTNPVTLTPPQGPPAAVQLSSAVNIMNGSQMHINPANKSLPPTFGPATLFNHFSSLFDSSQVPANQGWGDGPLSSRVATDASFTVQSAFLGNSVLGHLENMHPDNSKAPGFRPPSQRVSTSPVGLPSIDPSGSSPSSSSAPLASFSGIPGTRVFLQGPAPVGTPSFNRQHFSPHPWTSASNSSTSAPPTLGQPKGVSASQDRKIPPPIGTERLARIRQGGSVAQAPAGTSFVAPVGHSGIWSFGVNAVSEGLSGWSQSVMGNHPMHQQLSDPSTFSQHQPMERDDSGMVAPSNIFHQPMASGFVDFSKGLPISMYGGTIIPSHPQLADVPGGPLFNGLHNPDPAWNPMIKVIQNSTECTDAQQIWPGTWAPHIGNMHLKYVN

Experiments:
[1] = target: Flag-PTEN (phosphatase and tensin homolog deleted on chromosome ten) (UniProt P60484); experiment: co-IP; co-immunoprecipitation in 293T cells (Fig. S2); bait not told
[2] = target: phosphatase and tensin homolog deleted on chromosome ten (PTEN), endogenous (human (endogenous in SW 1990 and HPAC)) (UniProt P60484); experiment: co-IP; co-immunoprecipitation (Fig. 7C); cells and bait not told; repeated three times

In the case of “ankyrin repeat and KH domain containing 1 (ANKHD1) (from UniProt Q8IWZ3 1-2542)”, the binding [1] is reported as “binds” and the binding [2] is reported as “binds”.
